US20040132755A1, “Isoxazoles and uses thereof” (priority 2002, published 2004)
Some entries share one result that the patent states for a list of compounds.

test system: cultured hippocampal neuronal cells; assay: In vitro ischemia (OGD) assay; type: cell-based; details: anoxia-re-oxygenation; live neurons counted after 20-24 hours re-oxygenation

| SMILES | percent protection value (percentage of neuronal cells protected against ischemic injury (OGD)) [%] |
| --- | --- |
| OC1CCN(Cc2onc(-c3ccc(F)cc3)c2-c2ccnc(NC3CCCCC3)n2)CC1 [I-1] | ≥ 50 |
| Fc1ccc(-c2noc(CN3CCCCC3)c2-c2ccnc(NC3CCCCC3)n2)cc1 [I-3] | ≥ 50 |
| OC1CCN(Cc2onc(-c3ccc(F)cc3)c2-c2ccnc(NC3CC4CCC3C4)n2)CC1 (stereo not shown) [I-13] | ≥ 50 |
| OC1CCN(Cc2onc(-c3ccc(F)cc3)c2-c2ccnc(NC3CC4CCC3C4)n2)CC1 (stereo not shown) [I-18] | ≥ 50 |
